Experimental data as given in patent US20090062199A1, “Nogo Receptor Polypeptides and Polypeptide Fragments and Uses Thereof” (Biogen Idec MA Inc., priority 2005, published 2009).
These are yes or no findings as the source states them, for the method shown. Some binding calls cover weakened binding; strength is not graded here. For part of these data: Where a sequence is shown, tags or fusion partners need not be part of it.

Protein sequences, listed by entry. Tags and fused reporters are not part of them. Residues count along the entry.
UniProt Q9NQC3, residues 1055-1120: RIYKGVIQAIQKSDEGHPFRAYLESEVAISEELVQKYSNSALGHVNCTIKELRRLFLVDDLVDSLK
UniProt P08138, residues 29-250: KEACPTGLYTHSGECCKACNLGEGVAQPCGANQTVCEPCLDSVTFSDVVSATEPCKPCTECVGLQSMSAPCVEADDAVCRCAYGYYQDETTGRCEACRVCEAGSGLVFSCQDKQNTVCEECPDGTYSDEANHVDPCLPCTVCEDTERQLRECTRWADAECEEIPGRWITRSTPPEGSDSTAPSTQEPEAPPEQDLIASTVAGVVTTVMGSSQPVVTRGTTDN
UniProt Q96FE5, residues 42-538: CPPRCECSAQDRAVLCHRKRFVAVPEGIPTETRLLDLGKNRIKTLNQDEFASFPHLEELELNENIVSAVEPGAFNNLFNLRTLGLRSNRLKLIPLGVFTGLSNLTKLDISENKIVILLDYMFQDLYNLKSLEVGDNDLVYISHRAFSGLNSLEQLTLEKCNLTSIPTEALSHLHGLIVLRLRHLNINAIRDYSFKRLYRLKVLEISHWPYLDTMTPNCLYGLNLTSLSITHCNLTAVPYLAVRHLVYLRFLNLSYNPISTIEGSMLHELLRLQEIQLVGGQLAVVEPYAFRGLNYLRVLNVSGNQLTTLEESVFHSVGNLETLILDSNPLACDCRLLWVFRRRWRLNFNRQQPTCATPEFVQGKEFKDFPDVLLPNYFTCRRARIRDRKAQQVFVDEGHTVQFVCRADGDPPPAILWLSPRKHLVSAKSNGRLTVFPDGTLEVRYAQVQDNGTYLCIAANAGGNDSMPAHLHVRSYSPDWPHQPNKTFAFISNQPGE

Legend:
[1] = target: T1, OMgp (UniProt P23515); experiment: ELISA
T1 sequence (looked up): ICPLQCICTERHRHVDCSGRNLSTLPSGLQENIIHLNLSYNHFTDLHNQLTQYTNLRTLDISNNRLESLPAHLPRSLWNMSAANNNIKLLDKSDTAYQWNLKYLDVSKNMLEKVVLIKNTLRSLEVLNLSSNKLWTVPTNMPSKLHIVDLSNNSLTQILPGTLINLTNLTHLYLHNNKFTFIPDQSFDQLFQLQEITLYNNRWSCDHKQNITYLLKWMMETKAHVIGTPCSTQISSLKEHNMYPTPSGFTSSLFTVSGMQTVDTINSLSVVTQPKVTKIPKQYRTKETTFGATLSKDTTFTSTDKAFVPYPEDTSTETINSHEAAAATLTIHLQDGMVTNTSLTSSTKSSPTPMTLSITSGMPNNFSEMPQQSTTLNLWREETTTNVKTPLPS

[2] = target: Nogo-66 (UniProt Q9NQC3); experiment: ELISA
[3] = target: p75 (UniProt P08138); experiment: ELISA
[4] = target: T2, TAJ (UniProt Q9NS68 30-170, limits assumed); experiment: ELISA
T2 construct: also called TROY
T2 sequence (looked up): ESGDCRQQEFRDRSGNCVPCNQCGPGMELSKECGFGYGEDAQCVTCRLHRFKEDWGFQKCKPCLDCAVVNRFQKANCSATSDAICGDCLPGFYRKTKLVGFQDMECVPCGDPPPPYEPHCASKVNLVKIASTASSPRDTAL

[5] = target: LINGO-1 (UniProt Q96FE5); experiment: ELISA
[6] = target: T2, TAJ; experiment: ELISA; binds more weakly than FL-NgR1

Measured: binding

B1: Human NgR1, excluding the GPI domain (FL-NgR1, residues 27-438) with a flag tag at its N-terminus (receptor)
chain: CPGACVCYNEPKVTTSCPQQGLQAVPVGIPAASQRIFLHGNRISHVPAASFRACRNLTILWLHSNVLARIDAAAFTGLALLEQLDLSDNAQLRSVDPATFHGLGRLHTLHLDRCGLQELGPGLFRGLAALQYLYLQDNALQALPDDTFRDLGNLTHLFLHGNRISSVPERAFRGLHSLDRLLLHQNRVAHVHPHAFRDLGRLMTLYLFANNLSALPTEALAPLRALQYLRLNDNPWVCDCRARPLWAWLQKFRGSSSEVPCSLPQRLAGRDLKRLAANDLQGCAVATGPYHPIWTGRATDEEPLGLPKCCQPDAADKASVLEPGRPASAGNALKGRVPPGDSPPGNGSGPRHINDSPFGTLPGSAEPPLTAVRPEGSEPPGFPTSGPRRRPGCSRKNRTRSHCRLGQAGSGG
notes: Soluble protein expressed in CHO cells; also called human FL-NgR1; NgRI; not shown: N-terminal flag tag
binds: [1] | [2] | [3] | [4] | [5]

B2: NgR1 (310), truncated version containing just the LRR region (receptor, not shown: small tags and cut ends)
chain: CPGACVCYNEPKVTTSCPQQGLQAVPVGIPAASQRIFLHGNRISHVPAASFRACRNLTILWLHSNVLARIDAAAFTGLALLEQLDLSDNAQLRSVDPATFHGLGRLHTLHLDRCGLQELGPGLFRGLAALQYLYLQDNALQALPDDTFRDLGNLTHLFLHGNRISSVPERAFRGLHSLDRLLLHQNRVAHVHPHAFRDLGRLMTLYLFANNLSALPTEALAPLRALQYLRLNDNPWVCDCRARPLWAWLQKFRGSSSEVPCSLPQRLAGRDLKRLAANDLQGCA
binds: [6]
